PubChem BioAssay AID1671195 – Yale University | 2021
Purpose: 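Regulators of LDL receptor activity judged by labelled LDL uptake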 (primary screen). System: human Huh7 hepatoma cells. Knock-down reagent: siRNA pool against human genes, 18 nM. Timing: about 2 to 2.5 days of knockdown, then 8 h LDL uptake. Treatment: DiI-labelled LDL at 30 µg/ml for 8 h, in lipoprotein-deficient serum medium. Detection: 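Fluorescent LDL signal imaged in cells, scaled to the plate median, robust z-score for each replicate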. Reading the numbers: robust z-score: higher = more LDL uptake after knockdown. Rule for the call: 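a gene counts as active if at least two replicate z-scores exceed ±2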.
The whole screen tested about 22,000 reagents; this is a random part of them. Of all reagents, about 1,510 (6.9%) are marked active. 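Active includes knockdowns raising or lowering LDL uptake; positive z-scores mean more uptake, negative mean less.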 The numbers tell different reagents against one gene apart.

no.	gene	reagent no.	robust z-score, replicate 1	robust z-score, replicate 2	robust z-score, replicate 3	outcome
1	VNN2	1	-2.26	-1.1	-1.3	inactive
2	LOC441163 (retired record)	1	-0.509	-0.627	-0.875	inactive
3	SPP1	1	3.56	2.13	2.06	active
4	MOCOS	1	-0.079	0.957	-0.849	inactive
5	XPO6	1	-2.18	-0.308	-1.56	inactive
6	NOD1	1	0.361	0.244	0.285	inactive
7	LOC387927 (retired record)	1	-0.14	-0.393	-0.579	inactive
8	TMEM240	1	2.69	2.83	2.71	active
9	CCDC124	1	-0.655	-1.4	-1.36	inactive
10	SEPTIN8	1	-0.412	-1.44	-1.18	inactive
11	GRB7	1	-1.31	-0.434	-1.58	inactive
12	RASSF8	1	-0.605	-1.35	0.561	inactive
13	ACTR2	1	-0.611	-0.814	0.19	inactive
14	LPAL2	1	-1.59	-1.76	-1.18	inactive
15	SRSF11	1	-1.55	-1.13	-1.87	inactive
16	SCGB3A2	1	-0.34	0.115	0.282	inactive
17	MLN	1	-1.42	-2.03	-1.06	inactive
18	LOC341370 (retired record)	1	0.133	-0.354	-0.209	inactive
19	PRKACB	1	-2.09	-2	-2.2	active
20	RTCB	1	0.8	1.05	1.45	inactive
21	YKT6P1	1	0.408	-0.03	0.278	inactive
22	PTPRJ	1	-0.0937	0.237	0.497	inactive
23	PAX3	1	2.22	2.06	2.37	active
24	DCAF4L1	1	0.329	0.481	0.571	inactive
25	SORCS3	1	-0.536	-0.436	-1.28	inactive
26	FAM182A	1	-1.24	-1.11	-0.829	inactive
27	CAMSAP2	1	-0.129	-1.61	0.904	inactive
28	LOC401058 (retired record)	1	0.0503	-0.176	-0.285	inactive
29	MGLL	1	-2.18	-2.38	-2	active
30	LILRA2	1	-0.0273	-1.55	-0.265	inactive
31	TERF1P5	1	0.584	0.652	0.594	inactive
32	UCN3	1	-0.541	-0.44	-0.465	inactive
33	XKR7	1	1	1.1	1.2	inactive
34	LINC00879	1	0.646	0.997	1.21	inactive
35	UBE3C	1	-0.622	0.672	-0.235	inactive
36	SMG7-AS1	1	-0.29	-0.141	-0.636	inactive
37	PIERCE2	1	-0.206	-0.0401	1.04	inactive
38	OR5AC2	1	-1.05	0.185	-0.224	inactive
39	PRDM12	1	1.26	0.804	1.76	inactive
40	CSNK1G2-AS1	1	-1.01	-0.929	-0.817	inactive
41	MTCP1	1	-0.932	-1.83	-1.03	inactive
42	CYP4Z1	1	-0.371	0.18	-0.434	inactive
43	TAF7	1	1.85	1.3	1.31	inactive
44	ARHGEF2	1	0.625	0.177	0.0822	inactive
45	LOC391144 (retired record)	1	-0.61	-0.224	-0.37	inactive
46	USP8	1	0.318	0.375	0.531	inactive
47	SLC5A12	1	0.332	0.59	0.931	inactive
48	OR1J4	1	0.505	-0.0184	-1.33	inactive
49	KIF19	1	-1.08	-0.905	-1.22	inactive
50	GZMH	1	0.066	0.237	-0.185	inactive
51	LOC388171 (retired record)	1	-0.569	-0.302	0.217	inactive
52	DNPH1	1	-0.838	-1.39	-1.82	inactive
53	IQCF1	1	-0.597	-0.542	-0.144	inactive
54	LOC442039 (retired record)	1	0.966	0.184	0.792	inactive
55	MED27	1	-1.51	0.164	-1.36	inactive
56	KLF14	1	0.3	-0.35	0.192	inactive
57	EIF3K	1	2.13	-0.138	1.26	inactive
58	FLJ39095	1	-0.136	-0.418	-0.615	inactive
59	PALM2AKAP2	1	1.63	0.326	1.25	inactive
60	PALM2AKAP2	2	0.27	-0.914	-0.676	inactive
61	PCDHGA6	1	0.354	0.133	-0.403	inactive
62	MIR7-3HG	1	-1.75	-1.71	-1.55	inactive
63	KLRC4	1	-0.136	-0.521	0.204	inactive
64	BDKRB2	1	0.74	-0.195	-0.517	inactive
65	ATP6V1E1P1	1	-1.1	-0.753	-0.435	inactive
66	TUBGCP2	1	2.5	2.01	1.27	active
67	GLS	1	-0.937	-0.741	-0.822	inactive
68	LINC00324	1	0.0619	0.18	-0.0283	inactive

7 neighbouring entries from above, for reference:
no.	gene	reagent no.	robust z-score, replicate 1	robust z-score, replicate 2	robust z-score, replicate 3	outcome
11	GRB7	1	-1.31	-0.434	-1.58	inactive
12	RASSF8	1	-0.605	-1.35	0.561	inactive
13	ACTR2	1	-0.611	-0.814	0.19	inactive
14	LPAL2	1	-1.59	-1.76	-1.18	inactive
15	SRSF11	1	-1.55	-1.13	-1.87	inactive
16	SCGB3A2	1	-0.34	0.115	0.282	inactive
17	MLN	1	-1.42	-2.03	-1.06	inactive
